Tested on: VSMCs
Test: Whole genome microarray analysis (Illumina HumanHT-12 v4) of cultured VSMCs treated with progestins
Type: cell-based, human
Conditions: for genes regulated solely by this progestin / Down-regulated genes / Total regulated genes / Up-related genes: number of genes; for genes regulated solely by this progestin: Venn diagram of MPA, ETO, P4; for Down-regulated genes / Total regulated genes / Up-related genes: 10^−7 M, fold-change >1.25 and P<0.05
Text: Cultured VSMCs (n=3) treated with control medium or medium containing medroxyprogesterone acetate (MPA, 10^−7 M), or etonogestrel (ETO, 10^−7 M) were processed for whole genome analyses using Illumina Human microarray kit. After qRT-PCR confirmation of several up and down regulated genes from microarray data, Ingenuity Pathway Analysis (IPA) determined relevant upstream signaling of LAPC altered gene expression. To investigate the role of genes and relevant signaling molecules identified by IPA, VSMCs (n=3) treated with MPA or ETO±1 or 10 ng/ml recombinant CCL2 (rCCL2)±STAT1 inhibitor, 5′-methyl-thioadenosine (MTA, 100 μM) were analyzed by BrdU incorporation proliferation, TUNEL based ELISA apoptosis and Transwell insert migration assays.
VSMCs were thawed and cultured in medium 231 (M231; Life Technologies) with smooth muscle growth supplement (5% FBS; 2 ng/mL human basic fibroblast growth factor, 0.5 ng/mL human epidermal growth factor, 5 ng/mL heparin, 0.2 μg/mL insulin and 5 μg/mL BSA; Life Technologies) with 100 U/mL penicillin, 100 μg/mL streptomycin, 0.25 μg/mL fungizone. Confluent VSMCs were washed twice with 1×PBS to remove residual serum, passaged in 96-well or 6-well plates and incubated in parallel in M231 with 1% charcoal striped FBS with 0.1% ethanol (vehicle, control) or 10^−7 M MPA (Sigma-Aldrich) or 10^−7 M ETO (Organon) or 10^−7 M P4 (Sigma-Aldrich) for 15 min, 6, 48, and 72 h. VSMCs were then washed with ice-cold PBS and stored at −80° C. for further RNA and protein analyses.
Total RNA was isolated using Qiagen miRNeasy Mini Kit (Qiagen) and RNeasy MinElute Cleanup Kit (Qiagen). The quality of isolated RNAs was confirmed using an Agilent 2100 Bioanalyzer. Microarray analysis was limited to those specimens in which RNA Integrity Number exceeded 8. Microarray processes were performed in the Keck Biotechnology Resource Laboratory at Yale University (New Haven, Conn.) using Illumina Human HT-12 v4 BeadChip (Illumina). Raw data without normalization were analyzed by GeneSpring GX12.5 software (Agilent Technologies-Silicon Genetics). Normalization was performed as described (35). Genes with a fold-change >1.25 and a P value<0.05 were considered differentially expressed. Ingenuity Pathway Analysis (IPA) software (Qiagen) explored molecular and biological networks related to differentially expressed genes.

Compound	share of differentially regulated genes that are down-regulated (cultured VSMCs)	share of differentially regulated genes that are up-regulated (cultured VSMCs)	genes regulated solely by this progestin	Down-regulated genes (cultured VSMCs)	Total regulated genes (cultured VSMCs)	Up-related genes (cultured VSMCs)	ETO-regulated genes also regulated by MPA (same directional change) (cultured VSMCs)	ETO-regulated genes also regulated by MPA (same directional change), number (cultured VSMCs)
CC(=O)[C@H]1CC[C@H]2[C@@H]3CCC4=CC(=O)CC[C@]4(C)[C@H]3CC[C@]12C [P4, progesterone]	55%	45%	16	22	40	18	–	–
CC(=O)O[C@]1(C(C)=O)CC[C@H]2[C@@H]3C[C@H](C)C4=CC(=O)CC[C@]4(C)[C@H]3CC[C@@]21C [MPA, medroxyprogesterone acetate]	51%	49%	612	401	793	392	–	–
C#C[C@]1(O)CC[C@H]2[C@@H]3CCC4=CC(=O)CC[C@@H]4[C@H]3C(=C)C[C@@]21CC [ETO, etonogestrel]	57%	43%	13	109	191	82	92%	175

From patent US20180078615A1, “USE OF CCL2 TO INHIBIT ABNORMAL UTERINE BLEEDING” (UNIVERSITY OF SOUTH FLORIDA, priority 2015, published 2018)
